Paper PMC12241633, “Irinotecan alleviates chemoresistance to anthracyclines through the inhibition of AARS1-mediated BLM lactylation and homologous recombination repair” (Signal Transduction and Targeted Therapy, 2025)
These are yes or no findings as the source states them, for the method shown. Binding seen in cells or lysates may run through a third protein. Some results given as binding are weak or reduced against the parent protein; the word gives no strength.

Chains of the proteins cited; added tags and fusions are not shown. Lines headed by an entry give the natural chain unless they say otherwise; changes in a name come on top.
UniProt P54132: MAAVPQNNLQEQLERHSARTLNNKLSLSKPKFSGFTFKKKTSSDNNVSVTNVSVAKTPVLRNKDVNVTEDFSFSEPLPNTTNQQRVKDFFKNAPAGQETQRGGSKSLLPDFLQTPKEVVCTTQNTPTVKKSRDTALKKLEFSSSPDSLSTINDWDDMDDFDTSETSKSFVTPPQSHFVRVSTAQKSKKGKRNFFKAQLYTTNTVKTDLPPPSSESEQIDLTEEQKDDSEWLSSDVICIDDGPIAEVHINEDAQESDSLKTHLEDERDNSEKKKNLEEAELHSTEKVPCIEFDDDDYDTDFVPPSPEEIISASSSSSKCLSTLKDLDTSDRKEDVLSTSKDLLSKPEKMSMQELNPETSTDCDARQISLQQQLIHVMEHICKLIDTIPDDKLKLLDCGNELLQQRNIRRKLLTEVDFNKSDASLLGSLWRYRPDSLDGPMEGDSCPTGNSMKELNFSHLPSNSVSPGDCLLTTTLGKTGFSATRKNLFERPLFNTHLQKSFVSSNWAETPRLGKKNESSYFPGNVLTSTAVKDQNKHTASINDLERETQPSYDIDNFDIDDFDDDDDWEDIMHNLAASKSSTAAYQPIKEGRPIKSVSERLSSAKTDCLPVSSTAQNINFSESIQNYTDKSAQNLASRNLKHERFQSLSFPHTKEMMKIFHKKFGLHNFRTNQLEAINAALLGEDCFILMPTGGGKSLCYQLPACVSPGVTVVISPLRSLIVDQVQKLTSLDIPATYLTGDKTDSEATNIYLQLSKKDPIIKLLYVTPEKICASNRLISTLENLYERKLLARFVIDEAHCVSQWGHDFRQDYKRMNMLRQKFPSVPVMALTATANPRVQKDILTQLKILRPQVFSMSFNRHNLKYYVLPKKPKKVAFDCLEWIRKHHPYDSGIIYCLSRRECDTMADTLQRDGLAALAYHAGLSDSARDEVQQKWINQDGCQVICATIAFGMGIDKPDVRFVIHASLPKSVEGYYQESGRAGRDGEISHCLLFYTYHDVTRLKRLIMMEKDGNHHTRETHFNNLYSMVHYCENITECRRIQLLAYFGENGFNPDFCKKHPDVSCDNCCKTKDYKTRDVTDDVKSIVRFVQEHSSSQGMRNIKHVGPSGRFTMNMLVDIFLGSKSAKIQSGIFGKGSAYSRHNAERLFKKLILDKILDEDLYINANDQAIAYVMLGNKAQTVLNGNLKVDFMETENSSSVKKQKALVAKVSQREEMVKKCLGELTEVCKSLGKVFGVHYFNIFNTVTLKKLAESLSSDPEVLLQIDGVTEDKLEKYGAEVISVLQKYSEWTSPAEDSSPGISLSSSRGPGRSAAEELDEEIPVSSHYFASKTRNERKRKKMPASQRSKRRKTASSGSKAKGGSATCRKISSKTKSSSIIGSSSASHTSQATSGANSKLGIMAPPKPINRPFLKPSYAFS

B1: DNA2 (protein, UniProt P51530 1-1060)
chain: MEQLNELELLMEKSFWEEAELPAELFQKKVVASFPRTVLSTGMDNRYLVLAVNTVQNKEGNCEKRLVITASQSLENKELCILRNDWCSVPVEPGDIIHLEGDCTSDTWIIDKDFGYLILYPDMLISGTSIASSIRCMRRAVLSETFRSSDPATRQMLIGTVLHEVFQKAINNSFAPEKLQELAFQTIQEIRHLKEMYRLNLSQDEIKQEVEDYLPSFCKWAGDFMHKNTSTDFPQMQLSLPSDNSKDNSTCNIEVVKPMDIEESIWSPRFGLKGKIDVTVGVKIHRGYKTKYKIMPLELKTGKESNSIEHRSQVVLYTLLSQERRADPEAGLLLYLKTGQMYPVPANHLDKRELLKLRNQMAFSLFHRISKSATRQKTQLASLPQIIEEEKTCKYCSQIGNCALYSRAVEQQMDCSSVPIVMLPKIEEETQHLKQTHLEYFSLWCLMLTLESQSKDNKKNHQNIWLMPASEMEKSGSCIGNLIRMEHVKIVCDGQYLHNFQCKHGAIPVTNLMAGDRVIVSGEERSLFALSRGYVKEINMTTVTCLLDRNLSVLPESTLFRLDQEEKNCDIDTPLGNLSKLMENTFVSKKLRDLIIDFREPQFISYLSSVLPHDAKDTVACILKGLNKPQRQAMKKVLLSKDYTLIVGMPGTGKTTTICTLVRILYACGFSVLLTSYTHSAVDNILLKLAKFKIGFLRLGQIQKVHPAIQQFTEQEICRSKSIKSLALLEELYNSQLIVATTCMGINHPIFSRKIFDFCIVDEASQISQPICLGPLFFSRRFVLVGDHQQLPPLVLNREARALGMSESLFKRLEQNKSAVVQLTVQYRMNSKIMSLSNKLTYEGKLECGSDKVANAVINLRHFKDVKLELEFYADYSDNPWLMGVFEPNNPVCFLNTDKVPAPEQVEKGGVSNVTEAKLIVFLTSIFVKAGCSPSDIGIIAPYRQQLKIINDLLARSIGMVEVNTVDKYQGRDKSIVLVSFVRSNKDGTVGELLKDWRRLNVAITRAKHKLILLGCVPSLNCYPPLEKLLNHLNSEKLIIDLPSREHESLCHILGDFQRE
B2: RAD54 (protein, UniProt Q92698 1-747)
chain: MRRSLAPSQLAKRKPEGRSCDDEDWQPGLVTPRKRKSSSETQIQECFLSPFRKPLSQLTNQPPCLDSSQHEAFIRSILSKPFKVPIPNYQGPLGSRALGLKRAGVRRALHDPLEKDALVLYEPPPLSAHDQLKLDKEKLPVHVVVDPILSKVLRPHQREGVKFLWECVTSRRIPGSHGCIMADEMGLGKTLQCITLMWTLLRQSPECKPEIDKAVVVSPSSLVKNWYNEVGKWLGGRIQPLAIDGGSKDEIDQKLEGFMNQRGARVSSPILIISYETFRLHVGVLQKGSVGLVICDEGHRLKNSENQTYQALDSLNTSRRVLISGTPIQNDLLEYFSLVHFVNSGILGTAHEFKKHFELPILKGRDAAASEADRQLGEERLRELTSIVNRCLIRRTSDILSKYLPVKIEQVVCCRLTPLQTELYKRFLRQAKPAEELLEGKMSVSSLSSITSLKKLCNHPALIYDKCVEEEDGFVGALDLFPPGYSSKALEPQLSGKMLVLDYILAVTRSRSSDKVVLVSNYTQTLDLFEKLCRARRYLYVRLDGTMSIKKRAKVVERFNSPSSPDFVFMLSSKAGGCGLNLIGANRLVMFDPDWNPANDEQAMARVWRDGQKKTCYIYRLLSAGTIEEKIFQRQSHKKALSSCVVDEEQDVERHFSLGELKELFILDEASLSDTHDRLHCRRCVNSRQIRPPPDGSDCTSDLAGWNHCTDKWGLRDEVLQAAWDAASTAITFVFHQRSHEEQRGLR

Molecular target: HA-tagged K24R BLM (human) (UniProt P54132)
Assay: co-IP; anti-HA IP of HA-BLM (WT or K24R) from E-resistant-BKO UM-UC-3 lysates in NP-40 buffer, 4 °C, protein A/G magnetic beads; endogenous partners detected by western blot; cells untreated or treated with 20 mM sodium lactate or 20 mM sodium oxamate for 24 h, or with AARS1 overexpression or knockdown

Row | Binder | binding
1 | B1 | binds
2 | B2 | binds
